Measurements reported in the supplement of paper PMC11006884.
The entries are a selection whose mix differs from that of the whole data set. Single values of this set are uncertain.

Sequences of proteins named here, by UniProt entry; tags and fusion partners are left off. A change or cut given only in a name is not applied to a line headed by its entry.
UniProt Q14258, whole entry, looked up: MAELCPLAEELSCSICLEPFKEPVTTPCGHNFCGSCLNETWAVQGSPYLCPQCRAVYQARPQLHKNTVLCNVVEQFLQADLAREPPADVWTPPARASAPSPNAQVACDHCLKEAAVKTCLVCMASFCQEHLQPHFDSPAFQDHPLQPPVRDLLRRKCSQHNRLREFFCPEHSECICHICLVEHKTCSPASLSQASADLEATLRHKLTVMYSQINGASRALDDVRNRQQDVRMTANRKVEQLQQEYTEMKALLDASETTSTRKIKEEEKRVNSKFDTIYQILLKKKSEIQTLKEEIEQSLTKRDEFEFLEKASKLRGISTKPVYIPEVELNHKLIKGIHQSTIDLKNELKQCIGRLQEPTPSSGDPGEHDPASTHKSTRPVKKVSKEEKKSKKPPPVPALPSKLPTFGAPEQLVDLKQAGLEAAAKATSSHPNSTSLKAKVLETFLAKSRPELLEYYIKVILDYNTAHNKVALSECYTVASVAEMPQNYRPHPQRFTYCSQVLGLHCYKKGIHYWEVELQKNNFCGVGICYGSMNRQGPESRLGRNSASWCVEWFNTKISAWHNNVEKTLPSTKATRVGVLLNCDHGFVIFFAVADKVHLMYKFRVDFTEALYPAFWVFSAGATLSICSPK
UniProt Q14974, whole entry, looked up: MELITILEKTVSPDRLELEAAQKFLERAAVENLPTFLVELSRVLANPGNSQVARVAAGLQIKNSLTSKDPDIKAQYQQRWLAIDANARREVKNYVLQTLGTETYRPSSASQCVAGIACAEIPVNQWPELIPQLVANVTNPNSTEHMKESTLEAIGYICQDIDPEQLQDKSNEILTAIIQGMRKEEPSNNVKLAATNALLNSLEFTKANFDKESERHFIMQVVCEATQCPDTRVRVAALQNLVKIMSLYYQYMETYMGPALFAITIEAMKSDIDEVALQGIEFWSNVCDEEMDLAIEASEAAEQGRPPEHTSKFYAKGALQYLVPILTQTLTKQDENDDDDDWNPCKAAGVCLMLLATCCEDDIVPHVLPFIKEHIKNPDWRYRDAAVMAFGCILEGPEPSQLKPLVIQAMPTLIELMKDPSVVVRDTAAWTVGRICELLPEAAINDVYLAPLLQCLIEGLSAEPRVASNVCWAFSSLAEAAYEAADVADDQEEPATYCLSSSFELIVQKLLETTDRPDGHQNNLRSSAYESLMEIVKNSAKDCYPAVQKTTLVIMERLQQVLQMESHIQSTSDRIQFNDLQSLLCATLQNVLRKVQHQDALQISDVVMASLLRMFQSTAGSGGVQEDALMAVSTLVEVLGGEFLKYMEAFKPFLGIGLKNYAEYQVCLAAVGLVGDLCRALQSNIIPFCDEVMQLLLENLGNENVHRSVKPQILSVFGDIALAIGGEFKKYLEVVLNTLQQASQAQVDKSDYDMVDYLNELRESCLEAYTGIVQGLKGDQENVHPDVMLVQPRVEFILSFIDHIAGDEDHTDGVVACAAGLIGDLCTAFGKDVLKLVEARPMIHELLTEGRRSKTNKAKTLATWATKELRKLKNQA
UniProt Q14683: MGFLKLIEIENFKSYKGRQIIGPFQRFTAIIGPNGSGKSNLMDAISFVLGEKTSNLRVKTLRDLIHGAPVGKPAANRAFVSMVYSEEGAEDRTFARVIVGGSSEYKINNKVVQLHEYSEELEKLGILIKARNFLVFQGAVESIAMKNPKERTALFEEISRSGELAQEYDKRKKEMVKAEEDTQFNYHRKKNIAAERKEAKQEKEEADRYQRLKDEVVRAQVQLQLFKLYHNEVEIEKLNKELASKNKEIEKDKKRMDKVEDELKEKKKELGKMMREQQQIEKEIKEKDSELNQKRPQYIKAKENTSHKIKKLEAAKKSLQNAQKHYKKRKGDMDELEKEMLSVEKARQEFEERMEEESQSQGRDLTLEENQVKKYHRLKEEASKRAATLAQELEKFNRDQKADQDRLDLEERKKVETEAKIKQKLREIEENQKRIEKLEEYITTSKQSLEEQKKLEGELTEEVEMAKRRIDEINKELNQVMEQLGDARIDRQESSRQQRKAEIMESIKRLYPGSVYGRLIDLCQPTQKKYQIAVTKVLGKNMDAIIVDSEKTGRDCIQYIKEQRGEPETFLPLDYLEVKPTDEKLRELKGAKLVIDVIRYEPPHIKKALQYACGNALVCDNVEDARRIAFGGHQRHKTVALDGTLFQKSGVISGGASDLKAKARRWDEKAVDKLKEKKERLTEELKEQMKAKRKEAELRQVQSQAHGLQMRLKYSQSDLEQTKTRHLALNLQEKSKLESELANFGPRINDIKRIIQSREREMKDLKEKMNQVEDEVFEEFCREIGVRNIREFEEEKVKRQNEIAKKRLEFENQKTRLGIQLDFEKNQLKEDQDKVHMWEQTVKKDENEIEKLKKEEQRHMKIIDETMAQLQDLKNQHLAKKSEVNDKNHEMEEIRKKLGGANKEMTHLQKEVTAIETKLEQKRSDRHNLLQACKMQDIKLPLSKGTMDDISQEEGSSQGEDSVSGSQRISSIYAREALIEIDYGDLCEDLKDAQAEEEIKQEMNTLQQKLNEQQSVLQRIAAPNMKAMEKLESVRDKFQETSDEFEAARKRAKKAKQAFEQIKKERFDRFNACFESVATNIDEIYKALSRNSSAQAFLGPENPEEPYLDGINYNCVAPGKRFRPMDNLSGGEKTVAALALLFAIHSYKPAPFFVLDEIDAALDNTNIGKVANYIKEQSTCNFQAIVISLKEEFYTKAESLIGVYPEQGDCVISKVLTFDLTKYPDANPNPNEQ
UniProt Q13867: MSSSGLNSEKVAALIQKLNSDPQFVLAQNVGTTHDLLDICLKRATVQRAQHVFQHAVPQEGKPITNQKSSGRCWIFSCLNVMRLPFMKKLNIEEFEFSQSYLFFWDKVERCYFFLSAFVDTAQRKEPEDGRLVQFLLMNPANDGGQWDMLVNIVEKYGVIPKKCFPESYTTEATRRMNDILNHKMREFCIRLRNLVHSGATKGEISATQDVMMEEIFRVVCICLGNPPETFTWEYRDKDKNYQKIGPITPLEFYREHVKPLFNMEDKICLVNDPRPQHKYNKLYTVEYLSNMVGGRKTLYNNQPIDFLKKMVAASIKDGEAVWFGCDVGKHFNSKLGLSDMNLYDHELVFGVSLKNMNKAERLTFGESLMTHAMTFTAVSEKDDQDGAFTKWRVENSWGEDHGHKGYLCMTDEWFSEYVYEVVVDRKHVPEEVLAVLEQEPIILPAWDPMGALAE
UniProt Q13685: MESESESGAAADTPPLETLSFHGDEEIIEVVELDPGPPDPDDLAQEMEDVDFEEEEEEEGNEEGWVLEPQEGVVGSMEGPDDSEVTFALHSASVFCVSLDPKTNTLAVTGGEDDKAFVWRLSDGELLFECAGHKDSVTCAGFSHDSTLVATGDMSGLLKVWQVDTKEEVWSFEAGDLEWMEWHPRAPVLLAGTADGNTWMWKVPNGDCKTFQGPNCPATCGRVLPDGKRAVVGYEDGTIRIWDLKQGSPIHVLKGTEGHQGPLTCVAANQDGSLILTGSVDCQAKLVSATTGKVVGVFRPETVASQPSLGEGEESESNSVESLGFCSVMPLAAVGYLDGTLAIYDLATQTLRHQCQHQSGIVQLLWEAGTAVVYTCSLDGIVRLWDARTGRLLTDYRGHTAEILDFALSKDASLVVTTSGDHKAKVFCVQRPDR
UniProt Q14008: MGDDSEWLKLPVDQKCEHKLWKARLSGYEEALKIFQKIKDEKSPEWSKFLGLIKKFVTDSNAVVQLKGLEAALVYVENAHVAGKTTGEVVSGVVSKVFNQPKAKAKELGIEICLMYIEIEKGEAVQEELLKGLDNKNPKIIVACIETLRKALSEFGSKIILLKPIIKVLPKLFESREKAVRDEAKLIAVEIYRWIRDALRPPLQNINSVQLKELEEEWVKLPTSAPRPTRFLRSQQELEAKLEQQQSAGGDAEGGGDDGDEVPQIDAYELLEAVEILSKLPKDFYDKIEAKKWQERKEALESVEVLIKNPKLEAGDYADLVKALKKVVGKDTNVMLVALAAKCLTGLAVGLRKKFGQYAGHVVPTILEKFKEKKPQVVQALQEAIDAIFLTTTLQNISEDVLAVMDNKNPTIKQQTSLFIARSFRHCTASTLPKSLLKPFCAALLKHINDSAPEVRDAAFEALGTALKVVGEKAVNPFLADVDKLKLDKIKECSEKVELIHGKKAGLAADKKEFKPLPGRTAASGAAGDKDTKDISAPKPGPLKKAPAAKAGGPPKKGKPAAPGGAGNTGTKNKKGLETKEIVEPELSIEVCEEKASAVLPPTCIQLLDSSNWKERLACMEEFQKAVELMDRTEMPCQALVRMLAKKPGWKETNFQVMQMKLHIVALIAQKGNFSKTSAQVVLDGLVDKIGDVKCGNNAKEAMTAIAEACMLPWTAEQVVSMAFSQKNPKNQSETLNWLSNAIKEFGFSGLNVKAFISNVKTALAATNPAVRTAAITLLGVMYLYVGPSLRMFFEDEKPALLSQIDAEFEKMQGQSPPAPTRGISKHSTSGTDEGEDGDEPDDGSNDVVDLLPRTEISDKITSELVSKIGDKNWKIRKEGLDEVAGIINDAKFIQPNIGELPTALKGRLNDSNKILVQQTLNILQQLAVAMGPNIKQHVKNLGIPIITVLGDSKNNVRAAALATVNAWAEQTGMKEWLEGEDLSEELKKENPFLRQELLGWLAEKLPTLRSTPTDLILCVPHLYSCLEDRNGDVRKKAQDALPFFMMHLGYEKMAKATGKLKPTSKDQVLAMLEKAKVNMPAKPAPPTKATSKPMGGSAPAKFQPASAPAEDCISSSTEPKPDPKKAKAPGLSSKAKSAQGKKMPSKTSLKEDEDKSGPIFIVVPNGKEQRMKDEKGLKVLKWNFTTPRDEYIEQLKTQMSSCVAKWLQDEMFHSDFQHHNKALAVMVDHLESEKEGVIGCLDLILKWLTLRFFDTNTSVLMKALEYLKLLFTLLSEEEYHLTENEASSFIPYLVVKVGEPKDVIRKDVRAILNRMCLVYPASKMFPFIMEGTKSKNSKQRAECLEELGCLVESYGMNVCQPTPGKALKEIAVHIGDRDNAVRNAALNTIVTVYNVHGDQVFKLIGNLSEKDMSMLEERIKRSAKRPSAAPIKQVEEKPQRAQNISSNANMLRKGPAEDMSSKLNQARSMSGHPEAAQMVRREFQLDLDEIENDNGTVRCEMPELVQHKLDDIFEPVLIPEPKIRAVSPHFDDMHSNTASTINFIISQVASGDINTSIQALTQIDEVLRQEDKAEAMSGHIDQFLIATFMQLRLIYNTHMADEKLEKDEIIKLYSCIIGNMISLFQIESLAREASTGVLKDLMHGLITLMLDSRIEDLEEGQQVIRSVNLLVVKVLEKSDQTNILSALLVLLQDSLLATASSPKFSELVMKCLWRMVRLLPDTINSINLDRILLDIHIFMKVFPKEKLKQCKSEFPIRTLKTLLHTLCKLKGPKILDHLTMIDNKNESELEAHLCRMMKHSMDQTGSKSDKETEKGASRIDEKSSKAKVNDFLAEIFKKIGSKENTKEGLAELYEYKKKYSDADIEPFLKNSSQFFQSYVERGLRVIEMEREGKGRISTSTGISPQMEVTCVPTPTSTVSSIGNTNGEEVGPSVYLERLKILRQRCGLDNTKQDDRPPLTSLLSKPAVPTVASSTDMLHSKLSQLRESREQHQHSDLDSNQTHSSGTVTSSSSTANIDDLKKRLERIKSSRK
UniProt Q14012: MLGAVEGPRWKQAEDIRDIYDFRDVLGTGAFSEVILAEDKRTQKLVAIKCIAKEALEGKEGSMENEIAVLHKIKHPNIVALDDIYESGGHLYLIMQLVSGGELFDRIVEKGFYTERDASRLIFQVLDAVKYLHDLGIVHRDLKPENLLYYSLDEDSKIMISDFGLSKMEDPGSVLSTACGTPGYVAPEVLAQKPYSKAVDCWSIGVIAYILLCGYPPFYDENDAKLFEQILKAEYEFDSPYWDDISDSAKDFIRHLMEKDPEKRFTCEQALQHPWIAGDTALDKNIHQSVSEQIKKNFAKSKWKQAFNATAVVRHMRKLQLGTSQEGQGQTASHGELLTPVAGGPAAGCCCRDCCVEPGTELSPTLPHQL
UniProt Q14247: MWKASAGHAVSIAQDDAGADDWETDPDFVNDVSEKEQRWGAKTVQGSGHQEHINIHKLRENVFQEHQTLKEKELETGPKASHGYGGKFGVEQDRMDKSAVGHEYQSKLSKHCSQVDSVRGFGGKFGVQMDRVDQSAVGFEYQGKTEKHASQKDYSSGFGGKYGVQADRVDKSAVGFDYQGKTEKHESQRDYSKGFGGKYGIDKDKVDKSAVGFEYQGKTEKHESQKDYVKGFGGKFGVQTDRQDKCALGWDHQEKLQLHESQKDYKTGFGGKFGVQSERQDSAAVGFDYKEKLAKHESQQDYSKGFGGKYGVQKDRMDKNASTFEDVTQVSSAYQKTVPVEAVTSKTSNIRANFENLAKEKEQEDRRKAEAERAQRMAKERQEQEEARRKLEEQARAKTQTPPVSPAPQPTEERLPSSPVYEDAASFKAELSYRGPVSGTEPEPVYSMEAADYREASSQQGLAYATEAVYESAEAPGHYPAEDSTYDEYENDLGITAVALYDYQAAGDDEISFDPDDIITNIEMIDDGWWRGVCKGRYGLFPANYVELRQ

Compound: COC(=O)/C=C/c1ccccc1 [methyl cinnamate]
Assay: log2 ratio of iodoacetamide-alkyne labeling of the cysteine site, DMSO over compound (competition); higher = stronger covalent engagement of the cysteine by the compound, active = 1 or more
Conditions: 500 µM; treatment time 1 h; system: HEK293T cell lysate
How it was run: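 For each cysteine, the log2 competition ratio is mean control-channel reporter intensity over mean compound-channel reporter intensity. HEK293T lysate (2 mg/mL) was exposed to vehicle or electrophile (500 µM, 1 h, ambient temperature), labelled with iodoacetamide alkyne (1 h), clicked to sCIP-TMT reagents, digested overnight with trypsin at 37 °C, streptavidin-enriched and analysed by Orbitrap Eclipse LC-MS/MS with FAIMS and FragPipe. Cysteines quantified in only one of three replicates, each with duplicate channels, were excluded.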

log2 ratio of iodoacetamide-alkyne labeling, inactive:
PUM1 C964 (UniProt Q14671) 0.17
BMS1 C317 (UniProt Q14692) -0.0977
TTLL12 C370 (UniProt Q14166) -0.0582
KANK1 C781 (UniProt Q14678) 0.0762
GAPVD1 C1220 (UniProt Q14C86) 0.192
TRIM25 C70 (UniProt Q14258) 0.0289
NCAPH C255 (UniProt Q15003) -0.0408
NPAT C551 (UniProt Q14207) 0.306
TRA2A C120 (UniProt Q13595) 0.105
EIF3A C58 (UniProt Q14152) 0.207
KPNB1 C455 (UniProt Q14974) 0.169
RIPK1 C325 (UniProt Q13546) 0.229
SHROOM2 C836 (UniProt Q13796) 0.513
PIN1 C57 (UniProt Q13526) 0.0674
BYSL C381 (UniProt Q13895) 0.0906
ESPL1 C1369 (UniProt Q14674) 0.00537
FHL3 C7 (UniProt Q13643) 0.0109
SMC1A C1115 (UniProt Q14683) 0.198
RRP1B C197 (UniProt Q14684) 0.205
RASA3 C58 (UniProt Q14644) 0.0282
BLMH C40 (UniProt Q13867) 0.273
ZNF638 C879 (UniProt Q14966) 0.272
AAMP C428 (UniProt Q13685) 0.432
ZMYM3 C557 (UniProt Q14202) 0.0839
KPNB1 C436 (UniProt Q14974) 0.169
CKAP5 C1113 (UniProt Q14008) 0.333
DYNC1H1 C2076 (UniProt Q14204) -0.0527
DYNC1H1 C3573 (UniProt Q14204) 0.144
CAMK1 C179 (UniProt Q14012) 0.294
EIF4EBP2 C35 (UniProt Q13542) 0.209
CTTN C112 (UniProt Q14247) 0.306
ITPR1 C530 (UniProt Q14643) 0.129
NUMA1 C1729 (UniProt Q14980) 0.0494
SCRIB C1082 (UniProt Q14160) -0.18
MCM6 C302 (UniProt Q14566) 0.175
UniProt Q14574_C804 0.281
MPP2 C334 (UniProt Q14168) 0.115

2 records picked at random from those above, as already listed:
log2 ratio of iodoacetamide-alkyne labeling, inactive:
EIF4EBP2 C35 (UniProt Q13542) 0.209
RRP1B C197 (UniProt Q14684) 0.205
